At least one compound was matched to its structure with a doubt left.
Tested on: Cem-7 cells
Assay: AK (adenylate kinase) release bioluminescence assay, Cem-7 cells incubated with dexamethasone
Format: cell-based
Experimental: A number of different cell types have been tested for induction of cytotoxicity with soluble agents. Cytolysis is determined after incubation with the agent, when the cell membrane has lost integrity and AK can ‘leak’ out into the surrounding culture medium. The assay is performed by incubating non-microbial (e.g. mammalian) cells, either cell lines or primary cell types including isolated tumour cells, with the agonist(s) of choice. After an appropriate incubation time the cells are simply removed from the incubator and AK activity determined in the culture supernatant. If the cells have been cultured in clear bottomed, white walled plates (Perkin Elmer Life Sciences) in volumes no greater than 100 μl, then the plates are simply placed in a luminometer equipped with injection facilities and 150 μl of AKR added to each of the wells, where an integral reading of light output is measured over 1 second. When using luminometers without injectors the AKR can be added manually preferably using a multichannel pipette. The light output is read as soon after addition of reagent as possible. The increase in light output over the complete medium control is the result of the leakage of AK from damaged cells as a result of incubation with cytolytic inducing substances.
Example 1: We have investigated 37 different cell lines and models of apoptosis/necrosis induction. One of the first models investigated for this assay was the incubation of Cem-7 cells with dexamethasone. Two different experiments were performed: one experiment where cells at different cell numbers/well were incubated with one concentration of dexamethasone (500 nM, Sigma) for 48 and 72 hours, and another experiment where cells at 5000/well were incubated with increasing concentrations of the agent (0, 10, 25, 50, 75, 100, 150, 200 nM) for 72 hours. […] At the end of the incubation period the plates were assayed for AK activity using the Wallac Microbeta Jet, with 150 μl of AKR added and the RLUs (1 second integral) read at time 0 and every 5 minutes for 45 minutes. […]

SMILES: C[C@@H]1C[C@H]2[C@@H]3CCC4=CC(=O)C=C[C@]4(C)[C@@]3(F)[C@@H](O)C[C@]2(C)[C@@]1(O)C(=O)CO [dexamethasone]
- detected AK activity versus control (25 nM dexamethasone, 72 hours, 5000 cells/well): markedly greater than the control values
- AK activity in the culture medium versus controls (500 nM dexamethasone, 48 hours, different cell numbers/well): little AK activity above controls
- AK activity (necrosis secondary to apoptosis) (500 nM dexamethasone, 72 hours, different cell numbers/well): cell number dependent increase in AK activity

From patent US20030008338A1, “Assay methods and kits therefor” (LumiTech (UK) Limited, priority 2000, published 2003)
